Source: PubChem BioAssay AID493246 (Drosophila RNAi Screening Center, 2011)

Aim: 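Genes fly cells need to grow and stay alive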 (primary screen)
Cells: Drosophila Kc and S2R+ cells
Knock-down reagent: long dsRNA against Drosophila genes
Read-out: 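Raw, unnormalised count of remaining cells in each well; per-plate z-scores of cell number underlie the calls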
Scale: Kc cell number and S2R+ cell number: higher = more cells remaining
Active means: 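Active when the per-plate z-score of cell number is 3 or more in the direction of fewer cells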
The deposit covers about 21,000 reagents; below is an unselected part of those with a known target gene and a result. Over the whole deposit, 429 (2%) are marked active. 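Values are raw and not normalised between plates; calls rest on per-plate z-scores that were not deposited.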 Unmarked entries are inactive. The numbers tell different reagents against one gene apart. Names joined by + are all predicted targets of the reagent. Reagent sequences are not shown. Not given: the amount of reagent, the time to read-out.

kune → Kc cell number, rep 1 = 1.61e6; Kc cell number, rep 2 = 1.53e6; S2R+ cell number, rep 1 = 1.19e6; S2R+ cell number, rep 2 = 1.28e6
Dcp-1 → Kc cell number, rep 1 = 1.50e6; Kc cell number, rep 2 = 1.53e6; S2R+ cell number, rep 1 = 1.22e6; S2R+ cell number, rep 2 = 1.32e6
CG8414 → Kc cell number, rep 1 = 1.46e6; Kc cell number, rep 2 = 1.56e6; S2R+ cell number, rep 1 = 1.28e6; S2R+ cell number, rep 2 = 1.46e6
VhaSFD → Kc cell number, rep 1 = 1.20e6; Kc cell number, rep 2 = 1.28e6; S2R+ cell number, rep 1 = 1.30e6; S2R+ cell number, rep 2 = 1.37e6
IFT46 → Kc cell number, rep 1 = 1.62e6; Kc cell number, rep 2 = 1.61e6; S2R+ cell number, rep 1 = 1.24e6; S2R+ cell number, rep 2 = 2.95e5
bru1 #1 → Kc cell number, rep 1 = 8.70e5 (active); Kc cell number, rep 2 = 8.85e5; S2R+ cell number, rep 1 = 5.16e5; S2R+ cell number, rep 2 = 6.14e5
bru1 #2 → Kc cell number, rep 1 = 1.66e6; Kc cell number, rep 2 = 1.68e6; S2R+ cell number, rep 1 = 8.82e5; S2R+ cell number, rep 2 = 1.02e6
bru1 #3 → Kc cell number, rep 1 = 1.45e6; Kc cell number, rep 2 = 1.53e6; S2R+ cell number, rep 1 = 1.03e6; S2R+ cell number, rep 2 = 1.19e6
bru1 #4 → Kc cell number, rep 1 = 1.54e6; Kc cell number, rep 2 = 1.58e6; S2R+ cell number, rep 1 = 1.08e6; S2R+ cell number, rep 2 = 1.20e6
bru1 #5 → Kc cell number, rep 1 = 1.21e6; Kc cell number, rep 2 = 1.29e6; S2R+ cell number, rep 1 = 9.95e5; S2R+ cell number, rep 2 = 1.12e6
Zip48C → Kc cell number, rep 1 = 1.41e6; Kc cell number, rep 2 = 1.50e6; S2R+ cell number, rep 1 = 1.01e6; S2R+ cell number, rep 2 = 1.15e6
CG34178 + CG34177 → Kc cell number, rep 1 = 1.50e6; Kc cell number, rep 2 = 1.45e6; S2R+ cell number, rep 1 = 1.10e6; S2R+ cell number, rep 2 = 1.27e6
CG15638 → Kc cell number, rep 1 = 1.52e6; Kc cell number, rep 2 = 1.64e6; S2R+ cell number, rep 1 = 1.19e6; S2R+ cell number, rep 2 = 1.32e6
Cnep1r1 → Kc cell number, rep 1 = 1.66e6; Kc cell number, rep 2 = 1.47e6; S2R+ cell number, rep 1 = 1.07e6; S2R+ cell number, rep 2 = 1.21e6
ey → Kc cell number, rep 1 = 1.38e6; Kc cell number, rep 2 = 1.41e6; S2R+ cell number, rep 1 = 9.86e5; S2R+ cell number, rep 2 = 1.10e6
CG42394 + CG6567 → Kc cell number, rep 1 = 1.81e6; Kc cell number, rep 2 = 1.91e6; S2R+ cell number, rep 1 = 1.12e6; S2R+ cell number, rep 2 = 1.33e6
tst + CG10375 → Kc cell number, rep 1 = 1.50e6; Kc cell number, rep 2 = 1.62e6; S2R+ cell number, rep 1 = 1.23e6; S2R+ cell number, rep 2 = 1.34e6
dsx #1 → Kc cell number, rep 1 = 1.38e6; Kc cell number, rep 2 = 1.42e6; S2R+ cell number, rep 1 = 1.07e6; S2R+ cell number, rep 2 = 1.22e6
dsx #2 → Kc cell number, rep 1 = 1.45e6; Kc cell number, rep 2 = 1.55e6; S2R+ cell number, rep 1 = 1.03e6; S2R+ cell number, rep 2 = 1.13e6
TBC1D23 → Kc cell number, rep 1 = 1.47e6; Kc cell number, rep 2 = 1.53e6; S2R+ cell number, rep 1 = 1.04e6; S2R+ cell number, rep 2 = 1.22e6
Pp2B-14D → Kc cell number, rep 1 = 1.43e6; Kc cell number, rep 2 = 1.43e6; S2R+ cell number, rep 1 = 9.20e5; S2R+ cell number, rep 2 = 1.01e6

Just “Kc cell number, rep 1”, for 3 of the entries above:
Cnep1r1	1.66e6
ey	1.38e6
CG42394 + CG6567	1.81e6
